Test results from the RepoRT retention time repository (doi:10.1016/j.chroma.2015.11.014).

Experiment: RP, Agilent ZORBAX Eclipse Plus C18, 150 × 2.1 mm, 3.5 µm, 40 °C, 0.3 mL/min, estimated dead time 1.1 min; A: water + 0.1% formic acid; B: acetonitrile + 0.1% formic acid; gradient (min/%B) 0/2 1/2 2/20 16.5/98 22/98
Details: stereoisomer not certain

## O=C(c1ccccc1)c1ccccc1
  LC retention time: 12.6 min
